Results: patent publication US8871807B2, “Detergents capable of cleaning, bleaching, sanitizing and/or disinfecting textiles including sulfoperoxycarboxylic acids” (Ecolab USA Inc., priority 2008, dated 2014)

Assay: Bleaching study of sulfonated peracids, Terg-o-tometer, % soil removal
Details: for SR (%) Red Wine on 100% cotton / SR (%) Tea on 100% cotton / SR (%) Tea on cotton-poly blend: 50 ppm available oxygen, 100° F., pH 7, 5 grain hard water, 20 minute; for SR (%) Red Wine on 100% cotton, compared to the POAA control / SR (%) Tea on 100% cotton, compared to the POAA control / SR (%) Tea on cotton-poly blend, compared to the POAA control: difference to equimolar peroxyacetic acid

O=C(CS(=O)(=O)O)OO [Compound 2-SPOAA, 2-Sulfoperoxyacetic acid]
SR (%) Red Wine on 100% cotton: 46% | SR (%) Tea on 100% cotton: 4% | SR (%) Tea on cotton-poly blend: −2% | SR (%) Red Wine on 100% cotton, compared to the POAA control: −22% | SR (%) Tea on 100% cotton, compared to the POAA control: −46% | SR (%) Tea on cotton-poly blend, compared to the POAA control: −44%

CC(=O)OO [POAA, peroxyacetic acid]
SR (%) Red Wine on 100% cotton: 68% | SR (%) Tea on 100% cotton: 50% | SR (%) Tea on cotton-poly blend: 42% | SR (%) Red Wine on 100% cotton, compared to the POAA control: 0% | SR (%) Tea on 100% cotton, compared to the POAA control: 0% | SR (%) Tea on cotton-poly blend, compared to the POAA control: 0%
